# From PubChem BioAssay (EPA / NIEHS)
# The chains behind the UniProt entries cited, without tags or fusion partners. Where a name states a change or a piece, a line headed by the entry shows the natural chain unless it says otherwise.
# UniProt P21731: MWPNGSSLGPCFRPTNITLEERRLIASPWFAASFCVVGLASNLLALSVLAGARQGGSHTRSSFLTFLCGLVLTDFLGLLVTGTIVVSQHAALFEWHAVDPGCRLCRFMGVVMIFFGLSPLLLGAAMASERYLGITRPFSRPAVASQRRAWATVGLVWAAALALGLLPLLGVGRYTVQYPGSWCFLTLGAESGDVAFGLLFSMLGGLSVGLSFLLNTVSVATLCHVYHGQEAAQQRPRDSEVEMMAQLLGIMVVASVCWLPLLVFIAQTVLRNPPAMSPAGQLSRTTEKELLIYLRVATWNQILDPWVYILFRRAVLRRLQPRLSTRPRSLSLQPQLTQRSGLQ
# UniProt P19490: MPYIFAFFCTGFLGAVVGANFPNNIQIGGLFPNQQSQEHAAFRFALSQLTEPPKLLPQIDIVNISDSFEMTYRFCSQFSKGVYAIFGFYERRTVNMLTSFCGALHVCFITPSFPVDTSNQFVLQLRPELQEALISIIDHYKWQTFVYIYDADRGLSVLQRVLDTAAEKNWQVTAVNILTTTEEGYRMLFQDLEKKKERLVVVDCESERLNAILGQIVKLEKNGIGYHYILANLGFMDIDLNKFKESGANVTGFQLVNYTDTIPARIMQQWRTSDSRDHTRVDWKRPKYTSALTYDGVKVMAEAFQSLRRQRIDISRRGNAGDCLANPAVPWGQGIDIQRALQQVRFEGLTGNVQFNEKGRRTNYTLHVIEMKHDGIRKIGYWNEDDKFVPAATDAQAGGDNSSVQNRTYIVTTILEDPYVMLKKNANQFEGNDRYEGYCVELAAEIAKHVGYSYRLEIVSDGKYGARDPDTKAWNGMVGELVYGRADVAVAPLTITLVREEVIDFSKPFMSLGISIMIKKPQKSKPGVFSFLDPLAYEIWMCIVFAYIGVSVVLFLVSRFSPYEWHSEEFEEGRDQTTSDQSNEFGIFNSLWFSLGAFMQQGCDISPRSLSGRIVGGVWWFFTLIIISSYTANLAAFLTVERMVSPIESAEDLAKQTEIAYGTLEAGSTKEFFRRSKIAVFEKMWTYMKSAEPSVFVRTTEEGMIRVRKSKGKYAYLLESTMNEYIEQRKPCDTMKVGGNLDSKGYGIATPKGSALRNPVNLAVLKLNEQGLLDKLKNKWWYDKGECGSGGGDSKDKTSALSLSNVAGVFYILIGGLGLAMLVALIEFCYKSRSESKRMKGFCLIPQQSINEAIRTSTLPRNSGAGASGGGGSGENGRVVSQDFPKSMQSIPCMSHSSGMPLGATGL
# UniProt P41146: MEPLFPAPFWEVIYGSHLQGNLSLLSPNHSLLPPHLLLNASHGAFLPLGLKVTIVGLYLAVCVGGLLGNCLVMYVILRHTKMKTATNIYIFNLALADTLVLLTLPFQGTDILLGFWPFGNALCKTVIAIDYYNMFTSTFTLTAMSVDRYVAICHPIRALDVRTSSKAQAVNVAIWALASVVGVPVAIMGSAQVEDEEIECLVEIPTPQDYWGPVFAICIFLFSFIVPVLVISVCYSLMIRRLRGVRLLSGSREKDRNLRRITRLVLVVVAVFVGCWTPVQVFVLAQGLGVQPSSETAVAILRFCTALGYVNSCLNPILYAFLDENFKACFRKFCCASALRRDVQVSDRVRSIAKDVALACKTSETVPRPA
# UniProt P56481: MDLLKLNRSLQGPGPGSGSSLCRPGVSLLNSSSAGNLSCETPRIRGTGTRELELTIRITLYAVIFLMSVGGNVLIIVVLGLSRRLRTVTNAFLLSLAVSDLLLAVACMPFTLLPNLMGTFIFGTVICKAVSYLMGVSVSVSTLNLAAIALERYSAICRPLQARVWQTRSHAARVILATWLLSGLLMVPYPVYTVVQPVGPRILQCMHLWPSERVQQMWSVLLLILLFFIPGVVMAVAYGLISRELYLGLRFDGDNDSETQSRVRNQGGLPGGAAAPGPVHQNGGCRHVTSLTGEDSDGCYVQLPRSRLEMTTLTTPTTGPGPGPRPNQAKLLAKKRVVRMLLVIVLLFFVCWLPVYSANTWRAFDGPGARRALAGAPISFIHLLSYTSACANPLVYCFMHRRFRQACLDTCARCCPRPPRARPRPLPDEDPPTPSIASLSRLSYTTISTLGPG
# UniProt P15204: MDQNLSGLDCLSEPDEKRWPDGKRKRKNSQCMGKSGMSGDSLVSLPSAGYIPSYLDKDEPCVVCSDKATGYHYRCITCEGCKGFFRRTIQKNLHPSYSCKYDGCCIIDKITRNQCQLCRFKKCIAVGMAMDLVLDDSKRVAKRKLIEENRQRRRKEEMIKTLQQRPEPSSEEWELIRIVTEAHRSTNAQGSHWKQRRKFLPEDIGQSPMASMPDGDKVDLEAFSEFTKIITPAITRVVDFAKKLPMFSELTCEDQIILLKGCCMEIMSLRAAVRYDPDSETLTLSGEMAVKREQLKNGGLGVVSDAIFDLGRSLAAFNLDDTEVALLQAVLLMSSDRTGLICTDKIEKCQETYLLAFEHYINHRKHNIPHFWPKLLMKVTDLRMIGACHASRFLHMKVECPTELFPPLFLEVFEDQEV
# UniProt P05177, whole entry, looked up: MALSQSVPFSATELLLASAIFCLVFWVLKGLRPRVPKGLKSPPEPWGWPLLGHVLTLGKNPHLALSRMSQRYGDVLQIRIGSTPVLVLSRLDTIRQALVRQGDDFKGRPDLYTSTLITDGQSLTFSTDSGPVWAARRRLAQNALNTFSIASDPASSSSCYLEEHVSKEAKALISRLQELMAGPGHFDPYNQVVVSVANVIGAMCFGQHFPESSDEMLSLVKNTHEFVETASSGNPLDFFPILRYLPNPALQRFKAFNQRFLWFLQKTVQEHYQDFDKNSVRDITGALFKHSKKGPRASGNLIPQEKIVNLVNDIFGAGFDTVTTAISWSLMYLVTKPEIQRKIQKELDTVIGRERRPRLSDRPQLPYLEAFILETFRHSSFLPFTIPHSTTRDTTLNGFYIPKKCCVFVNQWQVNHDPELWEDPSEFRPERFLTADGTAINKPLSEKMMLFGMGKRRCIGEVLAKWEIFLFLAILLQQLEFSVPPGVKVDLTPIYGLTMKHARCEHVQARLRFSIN
# UniProt P20814, whole entry, looked up: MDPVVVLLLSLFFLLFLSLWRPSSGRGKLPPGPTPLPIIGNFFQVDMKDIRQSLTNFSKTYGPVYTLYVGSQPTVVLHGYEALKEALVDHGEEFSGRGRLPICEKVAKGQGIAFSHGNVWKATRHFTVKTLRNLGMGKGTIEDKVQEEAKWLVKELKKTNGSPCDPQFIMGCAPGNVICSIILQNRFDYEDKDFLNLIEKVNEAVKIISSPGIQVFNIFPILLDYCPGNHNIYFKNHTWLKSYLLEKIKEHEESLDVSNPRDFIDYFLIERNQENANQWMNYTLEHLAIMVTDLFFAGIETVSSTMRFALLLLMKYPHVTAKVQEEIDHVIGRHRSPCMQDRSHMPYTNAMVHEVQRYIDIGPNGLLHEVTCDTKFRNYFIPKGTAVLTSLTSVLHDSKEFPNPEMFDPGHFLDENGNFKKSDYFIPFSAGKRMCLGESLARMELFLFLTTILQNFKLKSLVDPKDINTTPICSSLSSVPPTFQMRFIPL
# UniProt P68400, whole entry, looked up: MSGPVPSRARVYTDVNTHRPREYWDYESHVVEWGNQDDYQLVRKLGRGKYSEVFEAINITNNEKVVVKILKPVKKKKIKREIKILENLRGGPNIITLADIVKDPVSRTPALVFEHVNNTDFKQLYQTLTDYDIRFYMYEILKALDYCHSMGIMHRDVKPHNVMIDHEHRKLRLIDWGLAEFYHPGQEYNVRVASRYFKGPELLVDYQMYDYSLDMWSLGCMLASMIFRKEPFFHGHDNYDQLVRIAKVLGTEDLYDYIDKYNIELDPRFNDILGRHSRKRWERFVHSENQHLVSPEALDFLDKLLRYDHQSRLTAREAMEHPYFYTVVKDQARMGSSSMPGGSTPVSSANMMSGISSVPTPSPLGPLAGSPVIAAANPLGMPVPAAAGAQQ
# UniProt P35353: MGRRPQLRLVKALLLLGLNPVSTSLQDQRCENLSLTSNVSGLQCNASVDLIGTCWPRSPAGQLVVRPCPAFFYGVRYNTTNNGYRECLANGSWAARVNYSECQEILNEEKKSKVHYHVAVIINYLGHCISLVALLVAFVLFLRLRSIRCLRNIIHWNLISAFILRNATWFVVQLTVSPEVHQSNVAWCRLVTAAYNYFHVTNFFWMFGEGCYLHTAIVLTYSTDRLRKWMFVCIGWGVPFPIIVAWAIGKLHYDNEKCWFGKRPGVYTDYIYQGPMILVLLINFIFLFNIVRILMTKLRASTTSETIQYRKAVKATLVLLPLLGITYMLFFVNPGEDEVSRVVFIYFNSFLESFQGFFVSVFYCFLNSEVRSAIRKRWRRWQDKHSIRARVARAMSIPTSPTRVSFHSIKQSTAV
# UniProt P20789, whole entry, looked up: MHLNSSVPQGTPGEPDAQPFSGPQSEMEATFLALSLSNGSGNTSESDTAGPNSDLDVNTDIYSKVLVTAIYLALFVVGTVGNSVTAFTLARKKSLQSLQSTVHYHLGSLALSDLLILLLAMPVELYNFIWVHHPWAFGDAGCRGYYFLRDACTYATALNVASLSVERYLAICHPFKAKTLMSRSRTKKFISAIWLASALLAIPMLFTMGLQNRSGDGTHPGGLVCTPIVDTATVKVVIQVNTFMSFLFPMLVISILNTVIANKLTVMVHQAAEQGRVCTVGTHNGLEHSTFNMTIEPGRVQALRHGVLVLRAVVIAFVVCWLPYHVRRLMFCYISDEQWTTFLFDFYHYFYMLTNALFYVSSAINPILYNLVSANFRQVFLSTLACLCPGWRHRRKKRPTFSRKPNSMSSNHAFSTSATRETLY
# UniProt P10275: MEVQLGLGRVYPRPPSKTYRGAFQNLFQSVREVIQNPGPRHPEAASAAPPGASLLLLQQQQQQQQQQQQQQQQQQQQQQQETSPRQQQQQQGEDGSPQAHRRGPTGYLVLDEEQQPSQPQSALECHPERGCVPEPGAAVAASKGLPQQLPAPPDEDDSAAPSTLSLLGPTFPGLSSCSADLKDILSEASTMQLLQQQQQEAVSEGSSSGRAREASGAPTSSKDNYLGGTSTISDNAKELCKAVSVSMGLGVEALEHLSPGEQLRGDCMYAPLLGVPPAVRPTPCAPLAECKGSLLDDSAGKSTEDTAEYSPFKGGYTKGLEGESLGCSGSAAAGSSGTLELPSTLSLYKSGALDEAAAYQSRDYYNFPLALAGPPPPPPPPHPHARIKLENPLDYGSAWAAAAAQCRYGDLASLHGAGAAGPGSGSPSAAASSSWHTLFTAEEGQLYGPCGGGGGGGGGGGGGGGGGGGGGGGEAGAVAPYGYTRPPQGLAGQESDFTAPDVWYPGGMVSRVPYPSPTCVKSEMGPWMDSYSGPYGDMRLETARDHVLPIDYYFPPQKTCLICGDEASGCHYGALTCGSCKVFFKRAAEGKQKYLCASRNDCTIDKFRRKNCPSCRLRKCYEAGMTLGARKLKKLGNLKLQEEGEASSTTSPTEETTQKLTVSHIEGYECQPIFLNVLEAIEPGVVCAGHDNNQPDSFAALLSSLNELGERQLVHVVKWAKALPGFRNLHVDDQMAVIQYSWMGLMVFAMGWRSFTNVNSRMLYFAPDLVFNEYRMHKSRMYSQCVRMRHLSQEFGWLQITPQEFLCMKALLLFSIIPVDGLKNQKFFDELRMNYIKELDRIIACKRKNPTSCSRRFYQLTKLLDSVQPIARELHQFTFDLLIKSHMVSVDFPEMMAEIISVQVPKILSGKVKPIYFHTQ
# This list was built around the results that the source calls inconclusive (neither active nor inactive); the mix of calls is not that of the screen. For some assays here: Potencies of inconclusive entries are doubtful fits and often do not repeat. Calls of active or inactive are those of the source. Rule for the calls: active = hit-call score of the fitted dose curve at least 0.9, where 1 is the maximum; inconclusive = response in the unintended direction; inactive = score below 0.9.
# Tests used:
# [1] = target: human Thromboxane A2 Receptor (TXA2), TBXA2R (gene 6915) (UniProt P21731); assay: NVS_GPCR_hTXA2: NovaScreen (NVS) G Protein-Coupled Receptor Assay for human Thromboxane A2 Receptor (TXA2) (AID 2283282);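 note: actives reduce bound radioligand signal relative to DMSO baseline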
# Outline: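 Human platelet-derived receptor preparation incubated with test chemical and radiolabelled ligand for 1 hour, cell-free. Bound label was separated by filtration and counted; displacement relative to DMSO controls gave activity, screened at 25 uM, then titrated.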
# [2] = target: rat Glutamate, AMPA Site (AMPA), Gria1 (gene 50592) (UniProt P19490); assay: NVS_LGIC_rAMPA: NovaScreen (NVS) Ligand-Gated Ion Channel Assay for rat Glutamate, AMPA Site (AMPA) (AID 2283324)
# Outline: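 Screening at 25 uM in duplicate preceded concentration series reaching 50 uM for qualifying compounds. Radioligand displacement on rat forebrain membranes, 1 h, filter-based scintillation readout; reduced binding relative to DMSO.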
# [3] = ArunA_CellTiter_hNC: Viability Assessment in the ArunA Biomedical's Oris Neural Crest (hNC) Cell Migration Assay (AID 2283752)
# Outline: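 hNC cells (H9 ESC-derived), 60,000/well, Matrigel, LIF + bFGF medium; 16 h 37C attachment; 72 h compound in test medium; CellTiter Aqueous One read-out; loss-of-signal vs DMSO baseline.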
# [4] = ArunA_NOG_BranchPointsPerNeurite: ArunA Biomedical's Neurite Outgrowth (NOG) Assay for Branch Points Per Neurite (AID 2283759)
# Outline: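 Automated image analysis traced neurites (processes >10 um) from valid cell bodies after Hoechst and βIII-tubulin staining. hNN cells from H9 embryonic stem cells, 48 h exposure. Fitted bidirectionally against DMSO.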
# [5] = VALA_TUBIPS_Agonist_CellCount: Viability Assessment in the VALA Sciences human iPS-derived Endothelial Tubule Formation (TUBIPS) Agonism Assay (AID 2284338)
# [6] = target: human Orphanin, Opioid Related Nociceptin Receptor 1 (ORL1), OPRL1 (gene 4987) (UniProt P41146); assay: NVS_GPCR_hORL1: NovaScreen (NVS) G Protein-Coupled Receptor Assay for human Orphanin, Opioid Related Nociceptin Receptor 1 (ORL1) (AID 2283283)
# Outline: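 Cell-free binding using HEK293-derived receptor protein: radioligand displacement measured by filter scintillation 1 hour after dosing. Primary testing at 25 uM in duplicate, followed by singleton concentration series up to 50 uM; DMSO served as negative control.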
# [7] = target: mouse Cholecystokinin, CCK2 Receptor (CCKB), Cckbr (gene 12426) (UniProt P56481); assay: NVS_GPCR_mCKKBCentral: NovaScreen (NVS) G Protein-Coupled Receptor Assay for mouse Cholecystokinin, CCK2 Receptor (CCKB) (AID 2283293)
# Outline: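 Mouse forebrain membrane preparation incubated 2 h with chemical and radioligand; bound radioactivity counted after filtration. Single-concentration duplicate screen at 25 uM, then concentration series to 50 uM max for hits, DMSO as baseline.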
# [8] = ATG_M_32_XSP1: Attagene TRANS-FACTORIAL Multi-Species (XSP1) HepG2 Assay for M32 Transcription Factor (Internal Marker) (AID 2283799)
# Outline: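 Reporter transcripts from the M32 internal-control unit measured by RT-PCR, FAM labelling, HpaI digestion and capillary electrophoresis after 24 h compound exposure of transfected HepG2, 3 nM 6-alpha-fluorotestosterone included; DMSO baseline, positive-direction fit.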
# [9] = target: frog Thyroid hormone Receptor alpha (TRa), thra-a (gene 397942) (UniProt P15204); assay: ATG_frTRa_XSP2: Attagene TRANS-FACTORIAL Multi-Species (XSP2) HepG2 Assay for frog Thyroid hormone Receptor alpha (TRa) (AID 2283839)
# Outline: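 Transfect HepG2 with multiple reporter units (GAL4-UAS), dose chemical, incubate 24 h. Isolate RNA, reverse-transcribe, PCR-amplify reporter, label with 6-FAM by primer extension, digest with HpaI, run capillary electrophoresis; induction scored against DMSO.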
# [10] = target: human CYP1A2, CYP1A2 (gene 1544) (UniProt P05177); assay: NVS_ADME_hCYP1A2: NovaScreen (NVS) CYP450-related Enzyme Activity (ADME) Assay for human CYP1A2 (AID 2283102);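 note: fluorescence from turnover of a fluorogenic substrate by recombinant insect-cell CYP1A2; potency for inhibition since loss of fluorescence marks reduced CYP1A2 activity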
# Outline: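 rec. hCYP1A2 (insect cells), cell-free; fluorogenic substrate; 0.5 h; FI read. Baseline = acetonitrile; signal loss = inhibition. 10 uM duplicate primary → conc. series for actives.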
# [11] = target: rat CYP2C13, Cyp2c13 (gene 171521) (UniProt P20814); assay: NVS_ADME_rCYP2C13: NovaScreen (NVS) CYP450-related Enzyme Activity (ADME) Assay for rat CYP2C13 (AID 2283121)
# Outline: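 Inhibition is read as decreased fluorescent product formation, referenced to acetonitrile vehicle. Cell-free recombinant rat Cyp2c13 reaction ran 0.75 hour; compounds first at 10 uM in duplicate, then concentration series for actives.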
# [12] = target: human Casein Kinase 2- alpha 2 beta 2 (CK2a2b2), CSNK2A1 (gene 1457) (UniProt P68400); assay: NVS_ENZ_hCK2a2b2: NovaScreen (NVS) Enzymatic Assay for human Casein Kinase 2- alpha 2 beta 2 (CK2a2b2) (AID 2283147)
# Outline: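 Compounds were first screened in duplicate at 25 uM, and those passing the threshold were re-tested in concentration series up to a 50 uM maximum. Kinase activity of recombinant human CK2 α2β2 was measured 1 h after dosing by fluorescent substrate/product mobility-shift separation.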
# [13] = target: rat Corticotropin Releasing Factor Receptor (CRF), Crhr1 (gene 58959) (UniProt P35353); assay: NVS_GPCR_rCRF: NovaScreen (NVS) G Protein-Coupled Receptor Assay for rat Corticotropin Releasing Factor Receptor (CRF) (AID 2283300)
# Outline: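 Single-concentration (25 uM, duplicate) radioligand binding on rat cortical membrane preparations, counted by scintillation after 2 h. Activity scored as signal loss relative to DMSO negative control.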
# [14] = target: rat Neurotensin Receptor (NTS), Ntsr1 (gene 366274) (UniProt P20789); assay: NVS_GPCR_rNTS: NovaScreen (NVS) G Protein-Coupled Receptor Assay for rat Neurotensin Receptor (NTS) (AID 2283308)
# Outline: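 Single-point duplicates at 25 uM, then concentration series to 50 uM max for hits, measured radioligand displacement on rat forebrain membrane preparations. Bound label counted by filtration scintillation at 1 h; signal loss relative to DMSO fitted.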
# [15] = target: rat Glutamate, NMDA Agonist Site (GluNMDA), Grin1 (gene 24408) (UniProt P35439); assay: NVS_LGIC_rGluNMDA_Agonist: NovaScreen (NVS) Ligand-Gated Ion Channel Assay for rat Glutamate, NMDA Agonist Site (GluNMDA) (AID 2283327)
# Outline: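 Radioligand displacement at the agonist site on rat forebrain membrane preparations, read by filter scintillation after 1 h. Chemicals were first run at 25 uM in duplicate; those passing threshold were titrated to a 50 uM maximum.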
# [16] = VALA_TUBHUV_Agonist_CellCount: Viability Assessment in the VALA Sciences human Umbilical Vein Endothelial Tubule Formation (TUBHUV) Agonism Assay (AID 2284309)
# Outline: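 Viability endpoint by fluorescent imaging of fixed nuclear/CD31-stained HUVEC–HDF co-cultures. Readout is cell count, fitted upward against 0.1% DMSO. Compound exposure was 72 h in 10 ng/ml VEGF, after 3-day co-culture priming.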
# [17] = VALA_MIGHUV1_ScratchOnly_WoundArea: VALA Sciences human Umbilical Vein Endothelial Cell Migration (MIGHUV) Assay, Area of Scratch Wound Inhibited Recovery (AID 2284336)
# Outline: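 Wound area remaining after 24 h recovery imaged by Hoechst nuclear fluorescence in scratched HUVEC cultures, chemicals added within 30 min of scratching across a 6-point series. Gain of signal fitted against 0.1% DMSO; cytochalasin D positive control.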
# [18] = VALA_TUBHUV_Agonist_TubuleLength: VALA Sciences human Umbilical Vein Endothelial Tubule Formation (TUBHUV) Agonism Assay (AID 2284337)
# Outline: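 Tubule length quantified by CD31 immunofluorescence imaging after fixation. HUVEC-HDF co-cultures (1:3) pre-grown 3 days with 10 ng/ml VEGF, then dosed 3 days in VEGF medium; 0.1 % DMSO vehicle baseline.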
# [19] = target: Agonist Androgen Response Element (ARE), AR (gene 367) (UniProt P10275); assay: OT_AR_ARELUC_AG_1440: Odyssey Thera (OT) 24-hour CHO-K1 Luciferase Assay for Agonist Androgen Response Element (ARE) (AID 2283379)
# Outline: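 Luminescence increase above DMSO, read after a 24 h compound treatment of CHO-K1 cells expressing an androgen response element luciferase reporter, gives the single primary endpoint; concentration-response fitting used the positive direction.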
# [20] = CCTE_Deisenroth_AIME_96WELL_CTox_Active: Cytotoxicity Assessment (CTOX) in CCTE's 96-well Estrogen Receptor Transactivation Assay with AIME metabolic competence (metabolism positive), Deisenroth Lab (AID 2284028)
# Outline: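 Cytotoxicity in VM7Luc4E2 breast cells after 24 h exposure to medium from a 2 h metabolic pre-incubation with induced rat hepatic S9 in alginate microspheres; fluorescent live-cell protease readout, 10-point series 0.002–200 uM, n=4.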
smiles,measurement,setting,value
CN(C)[C@@H]1C(=O)C(C(N)=O)=C(O)[C@@]2(O)C(=O)C3=C(O)c4c(O)cccc4[C@@](C)(O)[C@H]3[C@H](O)[C@@H]12,outcome,[1],inactive
same,outcome,[2],inactive
same,AC50,[3],inconclusive: 66.8 µM
same,AC50,[4],active: 89.6 µM
same,AC50,[5],active: 9.92 µM
CC(C)(C)CC(C)(C)c1ccc(O)cc1,AC50,[6],inconclusive: 0.182 µM
same,outcome,[7],inactive
same,outcome,[8],inactive
same,outcome,[9],inactive
S=C1NCCN1,AC50,[10],inconclusive: 0.0667 µM
same,AC50,[11],inconclusive: 10 µM
same,AC50,[12],inconclusive: 25 µM
same,AC50,[13],inconclusive: 25 µM
same,outcome,[14],inactive
same,AC50,[15],inconclusive: 7.15 µM
same,AC50,[16],inconclusive: 7.54 µM
same,outcome,[17],inactive
same,outcome,[18],inactive
c1ccc(-c2ccccc2)cc1,AC50,[19],inconclusive: 50 µM
same,AC50,[20],inconclusive: 100 µM

# Two neighbouring records already listed, quoted:
smiles,measurement,setting,value
c1ccc(-c2ccccc2)cc1,AC50,[19],inconclusive: 50 µM
same,AC50,[20],inconclusive: 100 µM
